{
  "source": "PubChem BioAssay AID540356",
  "about": "(Broad Institute, 2011)",
  "note": "Among all 2,500 compounds or so, about 360 (14%) were called active.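 The calls were made as follows: active = signal-lowering compounds whose fitted half-maximal concentration AC50 is no higher than ten times their top tested concentration; inconclusive = flat curve with 30 to 70% inhibition, or poor fit; inactive = flat within 30%, signal increase, or AC50 above limit.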 The list shows a part of the results, in another mix than the full data.",
  "data": [
    {"experiment": "HRP/luminol detection interference without ALR, dose response, artefact control for ALR inhibitor project, biochemical, luminescence, no ALR or DTT, cherry-pick (AID 540356)", "conditions": "HRP/H2O2 luminol luminescence counterscreen", "values": [
      {"smiles": "Cc1ccc(S(=O)(=O)NNC(=O)c2ccc(O)cc2)cc1", "AC50": "inactive: > 10 µM"},
      {"smiles": "C/C(=C\\c1ccc(N)cc1)c1nc2ccccc2[nH]1", "AC50": "active: 6.64 µM"},
      {"smiles": "CC(=O)N1CCN(c2ccc(NCc3ccccc3)cc2)CC1", "AC50": "active: 8.41 µM"},
      {"smiles": "CCN(CCNC(=O)C1CCN(S(=O)(=O)CC)CC1)c1ccccc1", "AC50": "inactive: > 10 µM"},
      {"smiles": "O=C(N/N=C/c1c(O)n(Cc2ccccc2)c(=O)c2ccccc12)c1cccnc1", "AC50": "inactive: > 10 µM"},
      {"smiles": "CCN(CC)c1ccc(NC(=O)CCNC(=O)c2ccco2)cc1", "AC50": "inactive: > 10 µM"},
      {"smiles": "Nc1[nH]c(N=NC(=O)c2ccc(F)cc2)c2ccccc12", "AC50": "inactive: > 10 µM"},
      {"smiles": "Cc1ccc(S(=O)(=O)N2[C@@H](c3ccc(Cl)cc3)C(C(=O)O)=CC[C@H]2c2ccc(Cl)c(Cl)c2)cc1", "AC50": "inactive: > 10 µM"},
      {"smiles": "COc1cc(/C=N/NC(=O)CCN2CCCCC2)ccc1O", "AC50": "active: 8.16 µM"},
      {"smiles": "O=C(O)c1ccc2c(c1)C(=O)N(c1ccc(Nc3ccccc3)cc1)C2=O", "AC50": "inactive: > 10 µM"},
      {"smiles": "Cc1cc(C)c2c(-n3cccc3)c(C(=O)NNS(=O)(=O)c3ccc(Br)cc3)sc2n1", "AC50": "inactive: > 10 µM"},
      {"smiles": "Cc1cc(C)c(S(=O)(=O)Nc2ccc(N(C)C)cc2)c(C)c1-n1cnnn1", "AC50": "inactive: > 10 µM"},
      {"smiles": "CCN(CC)c1ccc(NC(=O)c2ccc(Br)o2)cc1", "AC50": "inactive: > 10 µM"},
      {"smiles": "O=C(NN=C1CCC(=NNC(=O)c2cccnc2)CC1)c1cccnc1", "AC50": "active: 8.24 µM"},
      {"smiles": "O=C(CCN1C(=O)/C(=C/c2ccccc2Cl)SC1=S)Nc1ccccc1C(=O)O", "AC50": "inactive: > 10 µM"},
      {"smiles": "COc1cc(C(=O)Nc2ccc(N(C)C)cc2)cc(OC)c1OC", "AC50": "inactive: > 10 µM"},
      {"smiles": "Oc1cc(O)cc(/C=C/c2ccc(O)c(O)c2)c1", "AC50": "active: 5.21 µM"},
      {"smiles": "NNC(=O)CCc1nc2ccc(O)cc2[nH]1", "AC50": "active: 10.3 µM"}
    ]}
  ]
}
